We go through one molecule from article PMC8396294.

Sequences of proteins named here, by UniProt entry; tags and fusion partners are left off.
UniProt P51111: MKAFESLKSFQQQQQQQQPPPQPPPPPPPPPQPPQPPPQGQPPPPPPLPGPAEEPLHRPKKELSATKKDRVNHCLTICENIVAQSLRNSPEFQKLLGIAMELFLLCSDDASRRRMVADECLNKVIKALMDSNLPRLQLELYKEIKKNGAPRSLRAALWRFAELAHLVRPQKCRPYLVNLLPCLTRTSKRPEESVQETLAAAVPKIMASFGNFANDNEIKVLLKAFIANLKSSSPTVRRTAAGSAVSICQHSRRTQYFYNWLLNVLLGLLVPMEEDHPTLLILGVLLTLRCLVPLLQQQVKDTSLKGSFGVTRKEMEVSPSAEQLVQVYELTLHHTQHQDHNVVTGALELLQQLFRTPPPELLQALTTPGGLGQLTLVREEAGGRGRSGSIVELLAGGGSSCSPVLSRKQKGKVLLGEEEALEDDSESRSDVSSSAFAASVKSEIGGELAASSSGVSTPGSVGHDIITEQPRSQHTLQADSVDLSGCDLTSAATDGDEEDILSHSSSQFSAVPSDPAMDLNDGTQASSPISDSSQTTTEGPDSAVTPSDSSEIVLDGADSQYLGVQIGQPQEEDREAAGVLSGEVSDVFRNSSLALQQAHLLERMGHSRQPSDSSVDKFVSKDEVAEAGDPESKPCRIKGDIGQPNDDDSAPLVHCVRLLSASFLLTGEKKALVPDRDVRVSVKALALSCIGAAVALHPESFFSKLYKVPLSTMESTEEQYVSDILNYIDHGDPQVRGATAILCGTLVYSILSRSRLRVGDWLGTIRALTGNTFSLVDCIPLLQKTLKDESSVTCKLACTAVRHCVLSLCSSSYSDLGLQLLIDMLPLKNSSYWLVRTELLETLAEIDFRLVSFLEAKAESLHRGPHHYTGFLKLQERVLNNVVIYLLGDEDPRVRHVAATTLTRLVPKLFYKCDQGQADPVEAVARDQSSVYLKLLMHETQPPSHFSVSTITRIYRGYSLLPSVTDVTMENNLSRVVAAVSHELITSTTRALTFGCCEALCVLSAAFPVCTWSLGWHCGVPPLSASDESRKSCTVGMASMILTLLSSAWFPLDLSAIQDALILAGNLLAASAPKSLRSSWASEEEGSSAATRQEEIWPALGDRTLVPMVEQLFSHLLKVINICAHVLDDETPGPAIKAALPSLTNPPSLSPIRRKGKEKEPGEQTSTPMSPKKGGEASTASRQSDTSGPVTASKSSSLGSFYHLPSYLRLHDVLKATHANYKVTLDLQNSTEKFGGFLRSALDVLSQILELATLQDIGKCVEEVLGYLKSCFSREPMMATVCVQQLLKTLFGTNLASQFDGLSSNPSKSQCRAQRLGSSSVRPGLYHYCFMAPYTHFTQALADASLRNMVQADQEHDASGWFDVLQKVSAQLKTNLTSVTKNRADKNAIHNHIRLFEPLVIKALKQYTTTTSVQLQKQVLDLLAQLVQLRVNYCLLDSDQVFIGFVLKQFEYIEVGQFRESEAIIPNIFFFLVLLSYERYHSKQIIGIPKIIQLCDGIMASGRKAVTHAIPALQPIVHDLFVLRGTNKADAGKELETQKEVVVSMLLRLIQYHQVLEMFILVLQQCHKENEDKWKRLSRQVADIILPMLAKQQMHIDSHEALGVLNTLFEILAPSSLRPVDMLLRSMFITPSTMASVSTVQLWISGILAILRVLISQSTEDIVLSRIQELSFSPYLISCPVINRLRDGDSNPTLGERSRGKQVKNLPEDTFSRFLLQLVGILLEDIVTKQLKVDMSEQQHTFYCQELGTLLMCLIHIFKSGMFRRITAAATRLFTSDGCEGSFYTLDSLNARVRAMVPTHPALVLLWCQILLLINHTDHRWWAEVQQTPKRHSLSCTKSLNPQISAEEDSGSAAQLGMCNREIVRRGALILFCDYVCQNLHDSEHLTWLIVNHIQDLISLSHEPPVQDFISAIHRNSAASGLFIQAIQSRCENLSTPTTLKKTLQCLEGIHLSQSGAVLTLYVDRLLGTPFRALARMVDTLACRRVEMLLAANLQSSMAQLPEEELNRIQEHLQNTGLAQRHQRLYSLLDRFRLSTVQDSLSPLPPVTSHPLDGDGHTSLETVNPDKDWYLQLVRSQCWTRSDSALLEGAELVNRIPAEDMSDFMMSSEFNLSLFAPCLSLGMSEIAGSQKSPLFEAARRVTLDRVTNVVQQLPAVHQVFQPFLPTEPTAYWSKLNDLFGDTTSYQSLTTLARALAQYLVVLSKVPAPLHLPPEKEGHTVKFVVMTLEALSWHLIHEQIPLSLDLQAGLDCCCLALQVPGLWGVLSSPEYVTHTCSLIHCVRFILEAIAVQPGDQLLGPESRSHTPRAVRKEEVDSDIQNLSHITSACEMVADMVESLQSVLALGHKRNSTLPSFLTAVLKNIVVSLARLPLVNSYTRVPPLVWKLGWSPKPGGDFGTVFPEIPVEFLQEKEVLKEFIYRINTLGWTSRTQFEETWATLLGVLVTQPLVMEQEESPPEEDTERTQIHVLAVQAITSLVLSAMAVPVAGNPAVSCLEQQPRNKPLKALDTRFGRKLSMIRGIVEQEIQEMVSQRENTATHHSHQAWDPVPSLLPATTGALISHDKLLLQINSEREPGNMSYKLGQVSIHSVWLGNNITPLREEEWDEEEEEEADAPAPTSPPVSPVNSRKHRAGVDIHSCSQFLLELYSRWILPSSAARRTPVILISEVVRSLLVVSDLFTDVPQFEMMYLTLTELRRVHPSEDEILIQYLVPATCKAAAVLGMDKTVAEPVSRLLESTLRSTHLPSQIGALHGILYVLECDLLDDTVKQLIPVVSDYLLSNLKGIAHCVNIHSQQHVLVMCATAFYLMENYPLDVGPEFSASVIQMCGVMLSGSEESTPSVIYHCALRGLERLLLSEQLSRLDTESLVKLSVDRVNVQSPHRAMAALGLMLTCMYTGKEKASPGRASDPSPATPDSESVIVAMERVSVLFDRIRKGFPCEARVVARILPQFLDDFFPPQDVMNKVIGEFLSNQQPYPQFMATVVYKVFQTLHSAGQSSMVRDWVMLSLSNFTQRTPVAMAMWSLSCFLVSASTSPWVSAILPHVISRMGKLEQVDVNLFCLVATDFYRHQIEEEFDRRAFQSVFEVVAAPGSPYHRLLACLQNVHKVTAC

The test addresses Huntingtin (HTT), endogenous in rat brain (rat (endogenous in rat brain)) (UniProt P51111). Kind of test: co-IP; brain protein lysates (N-PER reagent) of 55 weeks-old wild type and tgHD rats; (m)HTT precipitated with mab2166 (1 ug); TG6 detected with a polyclonal isoform-specific antibody (Zedira).

Results are given in words; binding and its absence hold for the method and conditions named. Binding seen in cells or lysates may run through a third protein. Some binding calls cover weakened binding; strength is not graded here.

B1: Transglutaminase 6 (TG6), endogenous in rat brain (enzyme, UniProt F1M4T7 1-706)
chain: MAGVRITKVDWQHSENGAAHHTQDYPCPELVVRRGQLFSLTLDLNRALDSEEALIFTVETGPHASEALHTKAIFQTAELEIGDTWTAAKEEQTENTITVSLSSPSNAVIGRYLLSARAASRRKHSDRKLGQFILLFNPWCPEDDVFLDSEEERQEYVLNDSGIIFRGVEKHIRAQGWNYGQFEEDILNICLSILDRSPSHQDDPATDVSHRHDPVYVTRIISAMVNSNNDRGVVQGQWQGKYGGGTNPLNWRGSVAILQKWFKGKYKPVKYGQCWVFAGVMCTVLRCLGIATRVVSNFNSAHDTDGNLSVDKYVDSYGRTLEDLTEDSMWNFHVWNESWFARQDLGSSYDGWQVLDATPQEESEGTFQCGPASVTAIREGDVHLAHDGPFVFAEVNADYITWLWHEDKRRERVYSDTKKIGRCISTKAVGSDSRVDITGLYKYPEGSRKERQVYGKALKKLLSVEAWGRRRRIRRASVRGIWRDDLLEPVTKPSITGKFKVLEPPVLGQDLKLALCLTNLTTRAQRVRVNVSGATILYTRKPVAEILRESHTMKLGPLEEKRIPVTISYSQYKEDLTEDKKILLAAMCLVSKGEKLLVEKDITLEDFITIKVLGPAVVGVTVAVEVLVINPLSESVKDCVLMVEGSGLLQGQLSVEVPSLKPQERALIQFNITPSKSGPRQLQVDLVSSQFPDIKGFVIIHVATAK
For B1, the binding result was “binds”.
